Some of these results come from one statement about several compounds together.
Test system: influenza virus H1N1-pdm 2619
Type: cell-based
Conditions: 0.01, 0.1, 1 μM

Cyclo(Ac-Trp-Arg-Val-Ser-MePhe-Thr-Tyr-MePhe-MeSer-Tyr-Thr-Pro-Ser-Cys)-amide [iHA-101]
number of plaques: dose-dependently decreased in a manner equal to or higher than that of iHA-24

Cyclo(Ac-Trp-Ser-MePhe-MeGly-His-Val-His-Tyr-Ser-Val-MePhe-Asn-MeAla-Val-Cys)-amide [iHA-102]
number of plaques: dose-dependently decreased in a manner equal to or higher than that of iHA-24

Cyclo(Ac-Trp-Thr-MeGly-Thr-His-Val-Arg-Tyr-Thr-Val-MePhe-Asn-MeAla-Ser-Cys)-amide [iHA-103]
number of plaques: dose-dependently decreased in a manner equal to or higher than that of iHA-24

Cyclo(Ac-Trp-Thr-MeGly-Asp-MePhe-MePhe-Ser-MeSer-His-Tyr-Thr-Val-Pro-Arg-Cys)-amide [iHA-100]
number of plaques: dose-dependently decreased in a manner equal to or higher than that of iHA-24
